Data reported in patent US20150166643A1 (Alexion, published 2015).
Residue numbers refer to the chain shown, from its start. In names and notes the source's numbering stands. No constants are given. Whether binding was seen depends on the method and setting. Some entries that bind do so weakly or less than the wild type.

Protein sequences, listed by entry. Tags and fused reporters are not part of them. Lines headed by an entry give the natural chain unless they say otherwise; changes in a name come on top.
UniProt P00751: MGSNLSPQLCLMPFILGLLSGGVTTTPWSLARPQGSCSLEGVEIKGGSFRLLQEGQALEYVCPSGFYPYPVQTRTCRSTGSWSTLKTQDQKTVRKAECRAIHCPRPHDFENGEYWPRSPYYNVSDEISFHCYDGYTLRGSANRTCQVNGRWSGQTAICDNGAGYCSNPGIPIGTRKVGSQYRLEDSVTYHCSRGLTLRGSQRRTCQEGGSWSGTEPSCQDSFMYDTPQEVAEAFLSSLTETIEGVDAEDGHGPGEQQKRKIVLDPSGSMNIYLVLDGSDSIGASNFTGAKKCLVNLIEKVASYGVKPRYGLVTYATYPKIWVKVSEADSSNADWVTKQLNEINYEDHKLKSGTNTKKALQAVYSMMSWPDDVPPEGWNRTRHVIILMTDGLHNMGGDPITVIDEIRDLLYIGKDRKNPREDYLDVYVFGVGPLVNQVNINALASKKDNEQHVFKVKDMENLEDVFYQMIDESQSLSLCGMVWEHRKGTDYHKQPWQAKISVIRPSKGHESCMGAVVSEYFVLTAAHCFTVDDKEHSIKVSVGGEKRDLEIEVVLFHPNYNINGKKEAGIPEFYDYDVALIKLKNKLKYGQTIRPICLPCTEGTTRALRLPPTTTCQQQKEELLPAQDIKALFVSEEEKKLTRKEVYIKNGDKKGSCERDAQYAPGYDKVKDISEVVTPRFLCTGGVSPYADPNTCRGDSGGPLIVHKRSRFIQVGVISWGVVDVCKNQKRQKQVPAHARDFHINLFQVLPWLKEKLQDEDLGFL

How the values were obtained:
[1] = target: human factor B (purified, Complement Technology A135) (human) (UniProt P00751); assay: SPR sensorgrams, captured antibody, soluble human factor B
[2] = target: human factor B (purified, Complement Technology A135) (human) (UniProt P00751); assay: SPR (Biacore), captured antibody, 200 nM soluble factor B flowed
[3] = target: human factor B (purified, Complement Technology A135) (human) (UniProt P00751); assay: ELISA, binding to fB
[4] = target: human factor B (purified, Complement Technology A135) (human) (UniProt P00751); assay: ELISA, human factor B coated at 0.5 ug/mL, detection with sheep anti-human kappa light chain HRP, abs 450 nm against nM antibody

Measured: binding

B1: CLS012 (TA106-derivative N31Q variant, full-length IgG2/4 mAb, expressed in CHO cells) (antibody, V domains shown)
VH: EVQLVQSGAEVKKPGASVKVSCKASGYSFTDYYMTWVRQAPGQGLEWMGWINPNSGGTKYAQKFQGRVTMTRDTSISTAYMELSRLRSDDTAVYYCARGYYANSAWFAYWGQGTLVTVSS
VL: DIVMTQSPDSLAVSLGERATINCKSSQSLLQSSTSKNYLAWYQQKPGQPPKLLIYWASTRESGVPDRFSGSGSGTDFTLTISSLQAEDVAVYYCKQVYNLPWTFGQGTKLEIKR
modifications: N-linked glycans on the heavy chain constant region
notes: Human IgG2/4 full-length mAb; also called CLS012 mAb; TA106 variant N31Q
binds: all assays above

B2: CLS013 (TA106-derivative S33A variant, full-length IgG2/4 mAb, expressed in CHO cells) (antibody, V domains shown)
VH: B1 VH
VL: B1 VL with Q31N, S33A
modifications: N-linked glycans on the heavy chain
notes: Human IgG2/4 full-length mAb; also called CLS013 mAb; TA106 variant S33A
binds: [2] | [3] | [4]
